Experimental data from paper PMC3364985, “Staphylococcus aureus Surface Protein SdrE Binds Complement Regulator Factor H as an Immune Evasion Tactic” (PLoS ONE, 2012).
Results are given in words; binding and its absence hold for the method and conditions named. For part of these data: In cells and extracts the contact can be indirect. Some results given as binding are weak or reduced against the parent protein; the word gives no strength.

The chains behind the UniProt entries cited, without tags or fusion partners. Residues count along the entry.
UniProt O86489, residues 53-1132: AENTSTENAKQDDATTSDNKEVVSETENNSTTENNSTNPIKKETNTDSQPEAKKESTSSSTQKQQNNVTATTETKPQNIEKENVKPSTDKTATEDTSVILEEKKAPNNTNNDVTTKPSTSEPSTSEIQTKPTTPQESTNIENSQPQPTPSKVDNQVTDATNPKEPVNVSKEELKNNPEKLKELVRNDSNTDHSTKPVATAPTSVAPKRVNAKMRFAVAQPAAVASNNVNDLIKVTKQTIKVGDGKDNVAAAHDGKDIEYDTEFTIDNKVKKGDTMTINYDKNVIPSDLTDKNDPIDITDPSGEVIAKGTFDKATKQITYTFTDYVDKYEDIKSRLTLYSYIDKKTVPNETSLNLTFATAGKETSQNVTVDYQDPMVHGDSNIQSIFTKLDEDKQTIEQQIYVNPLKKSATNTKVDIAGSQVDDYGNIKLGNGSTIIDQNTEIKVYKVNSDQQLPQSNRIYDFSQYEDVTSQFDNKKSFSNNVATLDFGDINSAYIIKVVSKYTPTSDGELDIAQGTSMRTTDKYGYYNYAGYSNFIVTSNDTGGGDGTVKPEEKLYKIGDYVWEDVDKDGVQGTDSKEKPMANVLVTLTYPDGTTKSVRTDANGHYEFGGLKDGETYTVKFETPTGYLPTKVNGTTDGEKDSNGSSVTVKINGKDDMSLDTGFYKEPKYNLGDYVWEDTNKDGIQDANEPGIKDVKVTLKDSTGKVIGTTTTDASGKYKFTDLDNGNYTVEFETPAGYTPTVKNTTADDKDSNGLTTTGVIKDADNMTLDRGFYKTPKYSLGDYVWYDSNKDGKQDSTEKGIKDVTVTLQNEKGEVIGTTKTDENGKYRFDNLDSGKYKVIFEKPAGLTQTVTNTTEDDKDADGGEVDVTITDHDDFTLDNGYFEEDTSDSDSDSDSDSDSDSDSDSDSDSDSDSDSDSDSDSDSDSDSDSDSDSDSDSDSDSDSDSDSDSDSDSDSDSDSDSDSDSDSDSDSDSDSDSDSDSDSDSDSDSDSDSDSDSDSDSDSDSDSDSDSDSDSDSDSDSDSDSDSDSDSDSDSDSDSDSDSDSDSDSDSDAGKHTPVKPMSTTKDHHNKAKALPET
UniProt P08603, residues 19-1231: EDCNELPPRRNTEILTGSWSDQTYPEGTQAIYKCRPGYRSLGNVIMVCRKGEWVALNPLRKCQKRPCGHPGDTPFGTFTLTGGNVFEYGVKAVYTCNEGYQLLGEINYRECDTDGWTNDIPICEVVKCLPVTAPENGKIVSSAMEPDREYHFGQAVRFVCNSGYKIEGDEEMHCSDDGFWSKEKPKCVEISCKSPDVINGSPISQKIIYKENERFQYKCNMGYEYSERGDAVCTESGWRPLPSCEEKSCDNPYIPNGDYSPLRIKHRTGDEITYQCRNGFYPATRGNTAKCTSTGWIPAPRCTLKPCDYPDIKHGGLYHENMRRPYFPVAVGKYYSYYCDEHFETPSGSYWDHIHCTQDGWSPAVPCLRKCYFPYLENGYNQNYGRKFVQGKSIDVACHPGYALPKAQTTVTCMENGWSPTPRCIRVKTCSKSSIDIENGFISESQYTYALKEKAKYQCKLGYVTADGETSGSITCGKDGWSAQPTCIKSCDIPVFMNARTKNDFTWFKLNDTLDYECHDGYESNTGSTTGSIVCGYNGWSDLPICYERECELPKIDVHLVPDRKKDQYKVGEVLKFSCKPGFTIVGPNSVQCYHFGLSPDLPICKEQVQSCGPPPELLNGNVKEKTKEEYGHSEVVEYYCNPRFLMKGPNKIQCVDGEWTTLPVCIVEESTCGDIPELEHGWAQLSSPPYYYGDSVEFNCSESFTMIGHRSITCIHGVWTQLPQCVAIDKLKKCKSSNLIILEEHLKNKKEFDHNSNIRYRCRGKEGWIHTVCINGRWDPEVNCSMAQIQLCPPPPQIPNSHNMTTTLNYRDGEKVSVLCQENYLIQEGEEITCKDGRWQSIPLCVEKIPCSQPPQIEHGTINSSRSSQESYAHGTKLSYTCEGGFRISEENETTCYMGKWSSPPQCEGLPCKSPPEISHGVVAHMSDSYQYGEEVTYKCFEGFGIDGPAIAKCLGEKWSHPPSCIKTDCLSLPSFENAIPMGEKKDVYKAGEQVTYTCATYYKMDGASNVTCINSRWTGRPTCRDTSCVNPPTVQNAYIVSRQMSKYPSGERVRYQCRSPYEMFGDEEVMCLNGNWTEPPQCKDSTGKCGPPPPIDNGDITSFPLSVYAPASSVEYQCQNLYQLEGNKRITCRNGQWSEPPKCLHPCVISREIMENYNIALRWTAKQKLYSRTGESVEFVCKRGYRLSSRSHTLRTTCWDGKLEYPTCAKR

Key:
[1] = target: Serine-aspartate repeat-containing protein E (SdrE) of S. aureus strain Reynolds, native cell wall protein (S. aureus strain Reynolds (endogenous)) (UniProt O86489); experiment: far-Western, overlay or dot blot; S. aureus cell wall protein fractions (size-exclusion and ionic exchange chromatography) resolved by SDS-PAGE, blotted, overlaid with purified fH (20 µg fH/10 ml 3% BSA/TBST) overnight at 4°C, anti-fH detection; bands that bound fH excised and identified by LC-ESI-MS/MS; only the binder purified
[2] = target: Serine-aspartate repeat-containing protein E (SdrE) of S. aureus strain Reynolds, native cell wall protein (S. aureus strain Reynolds (endogenous)) (UniProt O86489); experiment: cross-linking; 1×10^9 S. aureus Reynolds cells with 10 µg purified fH, 1 hr, PBS, 37°C; 50 µM BS^3 for 30 mins; cell wall extract, SDS-PAGE, anti-fH Western blot; fH-containing band identified by LC-ESI-MS/MS; only the binder purified
[3] = target: SdrE expressed on the surface of Lactococcus lactis (pKS80-SdrE) (S. aureus) (UniProt O86489); experiment: binding to whole bacteria in solution, SDS extraction, Western blot; L. lactis in GVBS^++ with 20% HI-serum, 1 hr, 37°C; bound proteins extracted with 2% SDS; anti-fH Western blot

Measured: binding

complement regulatory protein factor H (from UniProt P08603 19-1231)
binds: all assays above
